The list does not hold the whole screen: it gathers tests that were run many times, whatever their T/C, doses with no T/C, and many T/C values between a quarter and a half above the control. Other doses and runs of a compound stand elsewhere. T/C: endpoint of the treated group in % of that of the vehicle group. Some entries give survivors of the animals treated and no T/C: the source holds a T/C of zero for them, seemingly a mark for toxic or unscored doses. Some doses without a T/C left all or most animals alive at the check, yet need not have been tolerated: the source hardly ever lists a survival T/C far under the control, and the zero likely stands for such cases as well. Survivors were counted at the toxicity check, usually on the fifth day, unless a day is given; later deaths do not show. Schedule codes are those of the source, taken here to give the interval after Q, in days (D) or hours (H), and the number of doses after X. Additions like (4×) give the number of equal values in this list. For survival time, the PubChem record calls one and a half times the control and up active, and a quarter to a half above the control has no call in these data; cut-offs in other NCI protocols can differ. Some T/C values carry the count of animals alive at the toxicity check (mostly the fifth day); where none is given, no animal had died by that day. Some entries were tested several times; their values stand side by side, smallest first.
System: BDF1 mice, B16 melanoma ip, median survival T/C
Assay: NCI In Vivo Anticancer Drug Screen. Data for tumor model B16 Melanoma (intraperitoneal) in B6D2F1 (BDF1) mice
Settings: T/C endpoint: median survival time, higher T/C = longer survival
Outline: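 Transplantable tumor model; survival or tumor size measured; reported as T/C, treated over vehicle control.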

[1] = dose: 100.0 mg/kg/injection, schedule: Q01DX009 (ip), vehicle: saline
[2] = dose: 200.0 mg/kg/injection, schedule: Q01DX009 (ip), vehicle: saline
[3] = dose: 50.0 mg/kg/injection, schedule: Q01DX009 (ip), vehicle: saline
[4] = dose: 400.0 mg/kg/injection, schedule: Q01DX009 (ip), vehicle: saline
[5] = dose: 400.0 mg/kg/injection, schedule: Q01DX009 (ip), vehicle: Klucel (hydroxypropylcellulose) (HPC)

Compound: CC[N](CC)[Ge]([CH2]C)[CH2]C.CC[N](CC)[Ge]([CH2]C)[CH2]C
- survivor count (dose: 3.12 mg/kg/injection, schedule: Q01DX009 (ip), vehicle: saline): 10 of 10
- survivor count [1]: 0 of 10

Compound: OCCOCCOCCN1CCN(C(c2ccccc2)c2ccc(Cl)cc2)CC1 (stereo not given)
- survivor count [2]: 1 of 10

Compound: COC(=O)C1(N)CCCC1
- T/C (dose: 25.0 mg/kg/injection, schedule: Q01DX009 (ip), vehicle: saline): 129 % of control
- T/C [3]: 127, 128 [9 of 10 alive], 134, 140 % of control
- T/C [1]: 126 % of control
- survivor count [1]: 10 of 10
- survivor count [2]: 10 of 10
- survivor count [4]: 10 of 10

Compound: CC1CC(C)(C)N=C(CCC2CCCC23OCCO3)O1 (stereo not given)
- T/C [2]: 126 % of control

Compound: C=CCN(C(=O)OCC)c1ccccc1
- survivor count [5]: 5 of 6

Compound: CCC/C(=C\C(=O)O)CC
- survivor count (dose: 400.0 mg/kg/injection, schedule: Q04DX003 (ip), vehicle: Klucel (hydroxypropylcellulose) (HPC)): 10 of 10

Compound: CC(C)C(N)C(=O)Nc1nncs1 (stereo not given)
- survivor count [2]: 10 of 10
- survivor count [4]: 9 of 10

Compound: N#Cc1nc2ccccc2nc1C#N
- survivor count (dose: 25.0 mg/kg/injection, schedule: Q01DX009 (ip), vehicle: Klucel (hydroxypropylcellulose) (HPC)): 7 of 10
- survivor count (dose: 50.0 mg/kg/injection, schedule: Q01DX009 (ip), vehicle: Klucel (hydroxypropylcellulose) (HPC)): 1 of 10

Compound: CCCCCCCC(=O)CC(C)C
- survivor count [5]: 9 of 10

Compound: CC(C)CCC[C@@H](C)[C@H]1CC[C@H]2[C@@H]3CC=C4C[C@@H](O)CC[C@]4(C)[C@H]3CC[C@]12C
- survivor count (dose: 400.0 mg/kg/injection, schedule: Q01DX009 (ip), vehicle: other): 10 of 10
- survivor count (dose: 800.0 mg/kg/injection, schedule: Q01DX009 (ip), vehicle: other): 10 of 10
- survivor count (dose: 1600.0 mg/kg/injection, schedule: Q01DX009 (ip), vehicle: other): 10 of 10

Compound: NC(Cc1cc(I)c(Oc2cc(I)c(O)c(I)c2)c(I)c1)C(=O)O (stereo not given)
- survivor count (dose: 8.0 mg/kg/injection, schedule: Q01DX009 (ip), vehicle: saline): 10 of 10

Compound: Cc1ccc(C)c(NC(=O)Nc2ccccc2Cl)c1
- survivor count (dose: 200.0 mg/kg/injection, schedule: Q04DX003 (ip), vehicle: gum acacia): 10 of 10
- survivor count (dose: 400.0 mg/kg/injection, schedule: Q04DX003 (ip), vehicle: gum acacia): 10 of 10

Compound: Cc1ccc(S(=O)(=O)N/N=C/C(=O)O)cc1
- survivor count (dose: 3.12 mg/kg/injection, schedule: Q01DX009 (ip), vehicle: saline with Tween-80): 10 of 10
- T/C (dose: 12.5 mg/kg/injection, schedule: Q01DX009 (ip), vehicle: Klucel (hydroxypropylcellulose) (HPC)): 125 % of control
- T/C (dose: 17.5 mg/kg/injection, schedule: Q01DX009 (ip), vehicle: saline with Tween-80): 126 % of control
- T/C (dose: 25.0 mg/kg/injection, schedule: Q01DX009 (ip), vehicle: Klucel (hydroxypropylcellulose) (HPC), evaluated on day 45): 143 % of control
- T/C (dose: 25.0 mg/kg/injection, schedule: Q01DX009 (ip), vehicle: Klucel (hydroxypropylcellulose) (HPC), evaluated on day 60): 136 % of control
- T/C (dose: 25.0 mg/kg/injection, schedule: Q01DX009 (ip), vehicle: saline with Tween-80): 132 % of control
- T/C (dose: 35.0 mg/kg/injection, schedule: Q01DX009 (ip), vehicle: Klucel (hydroxypropylcellulose) (HPC)): 143 % of control
- T/C (dose: 50.0 mg/kg/injection, schedule: Q01DX009 (ip), vehicle: Klucel (hydroxypropylcellulose) (HPC), evaluated on day 45): 131 % of control
- T/C (dose: 50.0 mg/kg/injection, schedule: Q01DX009 (ip), vehicle: Klucel (hydroxypropylcellulose) (HPC), evaluated on day 60): 125 % of control
- survivor count [3]: 10 of 10
- survivor count (dose: 100.0 mg/kg/injection, schedule: Q01DX009 (ip), vehicle: Klucel (hydroxypropylcellulose) (HPC)): 10 of 10 (2×)
- survivor count [1]: 10 of 10
- survivor count (dose: 140.0 mg/kg/injection, schedule: Q01DX009 (ip), vehicle: Klucel (hydroxypropylcellulose) (HPC)): 5 of 10
- survivor count (dose: 140.0 mg/kg/injection, schedule: Q01DX009 (ip), vehicle: saline with Tween-80): 10 of 10
- survivor count (dose: 200.0 mg/kg/injection, schedule: Q01DX009 (ip), vehicle: Klucel (hydroxypropylcellulose) (HPC)): 9 of 10
- survivor count [2]: 10 of 10
- survivor count [4]: 0 of 10

Source: PubChem BioAssay AID192 (DTP/NCI, 2004)
